A value given as a limit tells only on which side of the number the result lay.

This passage reports solubility results from patent US10428048B2, “Androgen receptor antagonists” (CITY OF HOPE, priority 2015, dated 2019).

A short description of the series: physchem.

As usually defined, the solubility is the dissolved amount per volume that the medium holds. For the molecule `Cc1cc(/C=C/c2ccc3cc(N(C)C)ccc3[n+]2C)c(C)n1-c1ccccc1` [Pyrvinium], the solubility was less than 1000 µg/mL (aqueous buffer, Solubility (mg/ml) Buffer B (aqueous)); less than 1000 µg/mL (aqueous with cosolvent or surfactant or cyclodextrin, Solubility (mg/ml) Beta cyclodextrin); less than 1000 µg/mL (aqueous with cosolvent or surfactant or cyclodextrin, Solubility (mg/ml) Gamma cyclodextrin); less than 5000 µg/mL (organic solvent or mixture, Solubility (mg/ml) Acetonitrile); roughly 10000 µg/mL (organic solvent or mixture, Solubility (mg/ml) DMSO); less than 1000 µg/mL (organic solvent or mixture, Solubility (mg/ml) Ethanol).
